Values from PubChem BioAssay AID602196 (INSERM, 2012)

Screen: 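Modifiers of cisplatin sensitivity in A549 cells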
System: human A549 lung cancer cells
Reagents: siRNA pair against human genes
Timing: 48 h transfection before cisplatin; time from cisplatin to read-out not stated
Treatment: cisplatin at a dose killing half of control-siRNA cells; exact dose and duration not given
Measured: 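Cisplatin cell death as a shift from the 50% death seen with control siRNA; siRNAs toxic or growth-blocking alone scored 0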
Direction: two-siRNA summed score (-2 to +2): higher = both siRNAs protect from cisplatin killing; -2 means both sensitise; mean protection from cisplatin (shift in death) and protection from cisplatin (shift in death), siRNA C and protection from cisplatin (shift in death), siRNA D: higher = protection from cisplatin killing
Active means: 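Each siRNA scores 0 if harmful alone by LDH or WST-1, otherwise +1 if it reduces and -1 if it increases cisplatin killing; a gene is active when both siRNAs agree (sum +2 or -2)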
Calls: active = both siRNAs shift cisplatin killing the same way; inactive = no consistent shift, or siRNA harmful alone
This is one part, drawn at random, of about 23,000 reagents. Over the whole deposit, 455 (2%) are marked active. 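Active includes both protection and sensitisation; some change values fall well beyond the stated -50 to +50 range.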 A number with no mark means an inactive call. Reagents against one gene are numbered here. No sequences are given here. Not given: the amount of reagent.

target gene | reagent | two-siRNA summed score (-2 to +2) | mean protection from cisplatin (shift in death) (%) | protection from cisplatin (shift in death), siRNA C (%) | protection from cisplatin (shift in death), siRNA D (%)
ENTPD4 | 1 | -1 | -5.3 | 1.2 | -11.9
PPP2R5D | 1 | 0 | -3.3 | 0.7 | -7.3
VTCN1 | 1 | 0 | -0.9 | 0.6 | -2.4
ENPP6 | 1 | 0 | 1.6 | 2.5 | 0.8
BIRC5 | 1 | 0 | 0.9 | 2.8 | -1
MVP | 1 | 0 | -4.2 | 4.5 | -12.9
LINC01913 | 1 | 0 | 3 | 9.1 | -3
DPP8 | 1 | 0 | -0.3 | -7.1 | 6.5
LOC440066 | 1 | 0 | 4.9 | -4.1 | 13.8
SRD5A2 | 1 | 0 | 5.1 | 8 | 2.2
SRD5A2 | 2 | 0 | 6.7 | 9.6 | 3.9
TSPAN13 | 1 | 0 | -2.1 | 3 | -7.3
LOC440001 | 1 | 0 | 10.2 | 5.1 | 15.3
ITPRID1 | 1 | 0 | 14.1 | 2.2 | 26.1
RALYL | 1 | 0 | 1.1 | 19.1 | -16.8
CDC6 | 1 | 2 (active) | 20.1 | 20.8 | 19.5
ARGLU1 | 1 | 0 | -1.1 | -0.7 | -1.6
ABITRAM | 1 | 0 | 10.4 | 4 | 16.8
FLJ10246 | 1 | 0 | 3.2 | 0.8 | 5.7
WDR75 | 1 | 0 | 9.8 | 10.2 | 9.5
LRRC42 | 1 | 0 | 1.5 | 4.7 | -1.8
NR0B2 | 1 | 0 | -12.6 | 6.8 | -31.9
RIOX1 | 1 | 1 | 19.1 | 32.1 | 6.1

2 entries from above, reformatted:
target gene,reagent,two-siRNA summed score (-2 to +2),mean protection from cisplatin (shift in death) (%),"protection from cisplatin (shift in death), siRNA C (%)","protection from cisplatin (shift in death), siRNA D (%)"
ARGLU1,1,0,-1.1,-0.7,-1.6
ABITRAM,1,0,10.4,4,16.8
